Source: publication PMC10141943
These are yes or no findings as the source states them, for the method shown. In cells and extracts the contact can be indirect. Some results given as binding are weak or reduced against the parent protein; the word gives no strength. Sequences can lack the tags named with a protein.

Chains of the proteins cited; added tags and fusions are not shown.
UniProt Q01629: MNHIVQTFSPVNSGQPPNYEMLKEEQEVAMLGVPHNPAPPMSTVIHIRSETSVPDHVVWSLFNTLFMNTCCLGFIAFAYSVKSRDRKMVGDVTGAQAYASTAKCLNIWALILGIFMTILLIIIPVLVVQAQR

Target: T1, FLAG-MDA5 (melanoma differentiation-associated protein 5) (UniProt Q9BYX4)
T1 sequence: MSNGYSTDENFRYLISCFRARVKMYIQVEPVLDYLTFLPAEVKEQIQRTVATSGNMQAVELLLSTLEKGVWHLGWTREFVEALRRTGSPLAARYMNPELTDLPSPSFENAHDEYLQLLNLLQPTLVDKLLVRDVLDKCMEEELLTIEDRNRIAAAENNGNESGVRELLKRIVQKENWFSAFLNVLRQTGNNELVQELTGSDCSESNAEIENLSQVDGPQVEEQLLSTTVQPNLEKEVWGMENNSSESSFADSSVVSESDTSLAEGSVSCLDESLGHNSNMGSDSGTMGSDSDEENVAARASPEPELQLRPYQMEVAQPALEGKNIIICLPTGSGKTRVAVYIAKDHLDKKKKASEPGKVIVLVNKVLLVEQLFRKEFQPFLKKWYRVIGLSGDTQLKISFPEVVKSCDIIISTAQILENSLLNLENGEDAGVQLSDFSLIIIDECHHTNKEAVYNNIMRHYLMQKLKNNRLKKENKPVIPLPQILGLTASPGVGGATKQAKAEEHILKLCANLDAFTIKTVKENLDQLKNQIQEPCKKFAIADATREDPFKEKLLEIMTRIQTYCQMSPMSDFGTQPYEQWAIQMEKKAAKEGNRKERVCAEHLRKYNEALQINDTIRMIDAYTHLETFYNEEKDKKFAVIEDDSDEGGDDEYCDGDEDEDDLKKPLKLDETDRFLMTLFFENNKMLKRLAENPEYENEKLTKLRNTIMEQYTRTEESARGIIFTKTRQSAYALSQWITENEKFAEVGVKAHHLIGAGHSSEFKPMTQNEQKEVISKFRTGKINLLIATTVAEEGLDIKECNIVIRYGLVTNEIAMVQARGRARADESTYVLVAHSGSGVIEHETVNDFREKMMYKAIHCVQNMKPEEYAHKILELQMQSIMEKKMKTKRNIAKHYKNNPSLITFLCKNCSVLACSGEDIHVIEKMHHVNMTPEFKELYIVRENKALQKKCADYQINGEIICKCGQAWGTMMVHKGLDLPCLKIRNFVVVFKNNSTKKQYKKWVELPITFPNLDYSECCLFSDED
Assay: co-IP

- binding: binds
Substance: Myc-IFITM2 (human interferon-inducible transmembrane protein 2) (from UniProt Q01629 1-132)
